From article PMC7219087 come the findings set out here.

Amino acid sequences for entries named in this document (tags omitted). A change or cut given only in a name is not applied to a line headed by its entry.
UniProt A4D998: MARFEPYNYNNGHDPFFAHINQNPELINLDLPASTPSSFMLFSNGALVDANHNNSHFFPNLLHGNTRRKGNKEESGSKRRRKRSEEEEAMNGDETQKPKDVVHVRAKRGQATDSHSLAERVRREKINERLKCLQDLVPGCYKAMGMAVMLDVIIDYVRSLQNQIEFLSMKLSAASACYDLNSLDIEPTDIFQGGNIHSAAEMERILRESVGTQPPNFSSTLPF

These are yes or no findings as the source states them, for the method shown. Binding calls can cover weak binding; strength is not graded here. For part of these data: Where a sequence is shown, tags or fusion partners need not be part of it. For part of these data: In cells and extracts the contact can be indirect.

Test [1] addresses CESTA (CES), split-YFP fusion for BiFC (Arabidopsis thaliana) (UniProt A4D998). Briefly: split reporter; BiFC with split YFP (pYFPN43 and pYFPC43) in agroinfiltrated tobacco leaves; abaxial surfaces observed 2-5 days after agroinfiltration by confocal microscopy; YFP fluorescence in nuclei.
The target in test [2] is CESTA (CES), yeast two-hybrid fusion (Arabidopsis thaliana) (UniProt A4D998). Briefly: two-hybrid; GAL4 system (pGADT7 and pGBKT7), yeast strain AH109, cotransformation, 22°C; positive when growth on -W-L-H +15 mM 3-AT selective medium.

“… (STK), split-YFP fusion for BiFC (from UniProt Q38836 1-230)”: the binding result in test [1] is “binds”.
As for “… (STK), yeast two-hybrid fusion (from UniProt Q38836 1-230)”, the binding result in test [2] is “binds”.

B1: BRASSINOSTEROID ENHANCED EXPRESSION1 (BEE1), yeast two-hybrid fusion (protein, UniProt Q8GZ13 1-260)
chain: MANFENLSSDFQTIAMDIYSSITQAADLNNNNSNLHFQTFHPSSTSLESLFLHHHQQQLLHFPGNSPDSSNNFSSTSSFLHSDHNIVDETKKRKALLPTLSSSETSGVSDNTNVIATETGSLRRGKRLKKKKEEEDEKEREVVHVRARRGQATDSHSLAERVRRGKINERLRCLQDMVPGCYKAMGMATMLDEIINYVQSLQNQVEFLSMKLTAASSFYDFNSETDAVDSMQRAKARETVEMGRQTRDGSPVFHLSTWSL
On to B1, for which the binding result in test [2] is on record as “binds”.
